In patent US20100169988A1, “MEANS AND METHODS FOR ISOLATING AND DETERMINING NOVEL TARGETS FOR THE TREATMENT OF NEURODEGENERATIVE, NEUROLOGICAL OR NEUROPSYCHIATRIC DISORDERS AND COMPOSITIONS COMPRISING THE SAME” (priority 2006, published 2010):
These are yes or no findings as the source states them, for the method shown. Binding seen in cells or lysates may run through a third protein. Some binding calls cover weakened binding; strength is not graded here.

Tests used:
AICD(wt) peptide = molecular target: T1, AICD(wt) peptide; assay: bait peptide pull-down from SH-SY5Y lysate, Western blot
T1 sequence (peptide, N-terminal biotin via a hydrophilic linker): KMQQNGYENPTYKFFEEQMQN

PrSciAICD(wt) = molecular target: T2, PrSciAICD(wt); assay: PrSciAICD pull-down from SH-SY5Y lysate, PreScission elution, Western blot
T2 sequence (peptide, N-terminal biotin via a hydrophilic linker): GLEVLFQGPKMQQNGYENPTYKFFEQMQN

binding (AICD(wt) peptide): binds
binding (PrSciAICD(wt)): binds
B1: X11α (protein, human, UniProt Q02410 1-837, looked up)
chain: MNHLEGSAEVEVTDEAAGGEVNESVEADLEHPEVEEEQQQPPQQQHYVGRHQRGRALEDLRAQLGQEEEERGECLARSASTESGFHNHTDTAEGDVIAAARDGYDAERAQDPEDESAYAVQYRPEAEEYTEQAEAEHAEATHRRALPNHLHFHSLEHEEAMNAAYSGYVYTHRLFHRGEDEPYSEPYADYGGLQEHVYEEIGDAPELDARDGLRLYEQERDEAAAYRQEALGARLHHYDERSDGESDSPEKEAEFAPYPRMDSYEQEEDIDQIVAEVKQSMSSQSLDKAAEDMPEAEQDLERPPTPAGGRPDSPGLQAPAGQQRAVGPAGGGEAGQRYSKEKRDAISLAIKDIKEAIEEVKTRTIRSPYTPDEPKEPIWVMRQDISPTRDCDDQRPMDGDSPSPGSSSPLGAESSSTSLHPSDPVEASTNKESRKSLASFPTYVEVPGPCDPEDLIDGIIFAANYLGSTQLLSDKTPSKNVRMMQAQEAVSRIKMAQKLAKSRKKAPEGESQPMTEVDLFISTQRIKVLNADTQETMMDHPLRTISYIADIGNIVVLMARRRMPRSNSQENVEASHPSQDGKRQYKMICHVFESEDAQLIAQSIGQAFSVAYQEFLRANGINPEDLSQKEYSDLLNTQDMYNDDLIHFSKSENCKDVFIEKQKGEILGVVIVESGWGSILPTVIIANMMHGGPAEKSGKLNIGDQIMSINGTSLVGLPLSTCQSIIKGLKNQSRVKLNIVRCPPVTTVLIRRPDLRYQLGFSVQNGIICSLMRGGIAERGGVRVGHRIIEINGQSVVATPHEKIVHILSNAVGEIHMKTMPAAMYRLLTAQEQPVYI
